Measurements as given in paper PMC9638028, “Yeast Smy2 and its human homologs GIGYF1 and -2 regulate Cdc48/VCP function during transcription stress” (Cell Reports, 2022).
These are yes or no findings as the source states them, for the method shown. In cells and extracts the contact can be indirect. Some binding calls cover weakened binding; strength is not graded here. For some assays here: Sequences can lack the tags named with a protein. Blank lines part the entries; values can stand above or below the molecule they belong to.

Amino acid sequences for entries named in this document (tags omitted).
UniProt P25694: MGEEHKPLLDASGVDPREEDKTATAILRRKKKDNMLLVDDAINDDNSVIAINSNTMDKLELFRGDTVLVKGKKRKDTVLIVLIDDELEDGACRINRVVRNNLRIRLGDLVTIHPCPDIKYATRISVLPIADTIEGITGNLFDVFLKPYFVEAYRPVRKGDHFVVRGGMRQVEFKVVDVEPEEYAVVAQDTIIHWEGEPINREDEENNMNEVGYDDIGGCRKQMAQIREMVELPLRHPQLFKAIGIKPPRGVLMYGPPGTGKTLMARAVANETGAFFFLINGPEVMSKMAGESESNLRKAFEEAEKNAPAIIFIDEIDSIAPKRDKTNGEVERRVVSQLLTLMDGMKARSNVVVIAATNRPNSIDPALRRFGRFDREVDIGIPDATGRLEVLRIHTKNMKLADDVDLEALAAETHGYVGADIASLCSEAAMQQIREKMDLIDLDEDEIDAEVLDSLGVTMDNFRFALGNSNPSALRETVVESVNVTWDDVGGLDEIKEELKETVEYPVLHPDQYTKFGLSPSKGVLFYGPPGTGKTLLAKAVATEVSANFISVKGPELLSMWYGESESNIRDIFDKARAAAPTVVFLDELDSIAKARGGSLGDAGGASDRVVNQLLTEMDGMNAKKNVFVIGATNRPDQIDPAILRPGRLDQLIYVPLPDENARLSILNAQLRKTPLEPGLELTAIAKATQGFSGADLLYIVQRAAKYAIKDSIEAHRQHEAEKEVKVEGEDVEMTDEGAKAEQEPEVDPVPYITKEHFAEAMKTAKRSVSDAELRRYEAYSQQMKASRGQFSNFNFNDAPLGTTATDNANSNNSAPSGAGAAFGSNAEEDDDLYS
UniProt P04050: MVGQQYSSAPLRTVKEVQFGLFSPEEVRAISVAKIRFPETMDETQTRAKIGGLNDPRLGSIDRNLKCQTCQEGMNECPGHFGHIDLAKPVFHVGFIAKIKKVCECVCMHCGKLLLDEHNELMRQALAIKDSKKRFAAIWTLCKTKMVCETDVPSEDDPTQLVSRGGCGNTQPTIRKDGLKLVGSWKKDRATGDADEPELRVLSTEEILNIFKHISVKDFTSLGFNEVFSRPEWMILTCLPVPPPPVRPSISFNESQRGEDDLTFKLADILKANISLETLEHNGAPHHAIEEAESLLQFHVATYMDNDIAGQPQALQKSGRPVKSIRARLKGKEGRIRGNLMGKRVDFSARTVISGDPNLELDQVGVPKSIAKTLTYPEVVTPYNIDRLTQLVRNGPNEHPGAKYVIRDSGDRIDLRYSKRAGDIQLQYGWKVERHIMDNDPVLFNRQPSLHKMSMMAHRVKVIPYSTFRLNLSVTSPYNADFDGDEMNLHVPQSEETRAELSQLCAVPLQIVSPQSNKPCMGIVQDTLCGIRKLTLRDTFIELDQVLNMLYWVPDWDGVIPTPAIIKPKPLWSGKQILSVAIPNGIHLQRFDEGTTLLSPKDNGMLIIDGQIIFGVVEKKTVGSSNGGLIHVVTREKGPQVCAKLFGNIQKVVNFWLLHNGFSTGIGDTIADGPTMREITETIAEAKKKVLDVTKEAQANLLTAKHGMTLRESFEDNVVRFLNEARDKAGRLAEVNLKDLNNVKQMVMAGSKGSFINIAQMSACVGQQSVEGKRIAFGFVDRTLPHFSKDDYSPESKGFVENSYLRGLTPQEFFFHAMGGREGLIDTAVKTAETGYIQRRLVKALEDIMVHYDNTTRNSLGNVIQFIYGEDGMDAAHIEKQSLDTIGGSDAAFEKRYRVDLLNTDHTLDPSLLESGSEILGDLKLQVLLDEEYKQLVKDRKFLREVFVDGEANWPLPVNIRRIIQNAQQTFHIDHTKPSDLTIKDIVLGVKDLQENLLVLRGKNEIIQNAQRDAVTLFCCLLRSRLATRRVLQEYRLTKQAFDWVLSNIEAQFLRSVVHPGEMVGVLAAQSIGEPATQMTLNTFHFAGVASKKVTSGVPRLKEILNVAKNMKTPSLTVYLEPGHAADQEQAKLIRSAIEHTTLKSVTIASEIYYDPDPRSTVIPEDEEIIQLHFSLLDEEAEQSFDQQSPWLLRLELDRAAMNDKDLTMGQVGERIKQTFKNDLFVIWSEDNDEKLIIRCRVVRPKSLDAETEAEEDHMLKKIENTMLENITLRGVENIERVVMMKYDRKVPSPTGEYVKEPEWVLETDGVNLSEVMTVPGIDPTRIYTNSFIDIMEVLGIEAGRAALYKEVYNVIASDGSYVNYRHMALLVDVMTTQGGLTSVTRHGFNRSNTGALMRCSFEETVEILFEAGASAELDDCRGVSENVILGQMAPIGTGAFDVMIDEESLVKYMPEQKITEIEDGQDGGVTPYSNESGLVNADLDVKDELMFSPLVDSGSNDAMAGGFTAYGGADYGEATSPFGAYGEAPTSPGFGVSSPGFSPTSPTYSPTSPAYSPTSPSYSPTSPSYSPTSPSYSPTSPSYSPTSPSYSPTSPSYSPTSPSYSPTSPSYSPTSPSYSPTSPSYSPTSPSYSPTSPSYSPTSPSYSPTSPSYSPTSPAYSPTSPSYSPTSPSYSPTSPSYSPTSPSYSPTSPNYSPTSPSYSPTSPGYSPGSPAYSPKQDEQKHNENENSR

What was measured:
[1] = target: T1, FLAG3-Smy2 (S. cerevisiae) (UniProt P32909); test: co-IP; anti-FLAG M2 agarose from yeast extracts of cells expressing FLAG3-Smy2 from the GAL promoter (gal) or not (glu); also at different times after 4-NQO; one wash at 500 mM salt
T1 sequence: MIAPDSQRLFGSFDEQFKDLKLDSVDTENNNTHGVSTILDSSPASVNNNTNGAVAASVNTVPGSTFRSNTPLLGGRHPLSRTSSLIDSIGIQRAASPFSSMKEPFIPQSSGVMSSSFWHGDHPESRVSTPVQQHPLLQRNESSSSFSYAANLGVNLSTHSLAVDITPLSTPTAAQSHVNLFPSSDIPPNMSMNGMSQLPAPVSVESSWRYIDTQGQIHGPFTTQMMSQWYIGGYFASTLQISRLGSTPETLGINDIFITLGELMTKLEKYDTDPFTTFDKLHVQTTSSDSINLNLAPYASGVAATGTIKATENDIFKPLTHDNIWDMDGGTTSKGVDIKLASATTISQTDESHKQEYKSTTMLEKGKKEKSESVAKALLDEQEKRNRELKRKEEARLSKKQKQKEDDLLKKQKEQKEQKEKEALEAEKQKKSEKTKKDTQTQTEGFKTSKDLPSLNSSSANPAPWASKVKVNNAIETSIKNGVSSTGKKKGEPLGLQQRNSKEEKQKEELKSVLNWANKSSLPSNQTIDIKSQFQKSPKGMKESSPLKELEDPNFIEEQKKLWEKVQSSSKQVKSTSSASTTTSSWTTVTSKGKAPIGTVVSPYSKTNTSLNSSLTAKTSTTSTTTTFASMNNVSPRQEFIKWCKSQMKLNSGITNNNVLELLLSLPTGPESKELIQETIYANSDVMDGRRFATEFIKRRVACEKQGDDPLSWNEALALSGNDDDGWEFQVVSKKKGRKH

[2] = target: T2, GIGYF2 (human (endogenous in MRC5VA)) (UniProt Q6Y7W6); test: proximity ligation; Duolink PLA on fixed, permeabilised MRC5VA wild-type or GIGYF1/2 double-knockout cells; antibodies to p97, GIGYF2, UFD1
T2 sequence: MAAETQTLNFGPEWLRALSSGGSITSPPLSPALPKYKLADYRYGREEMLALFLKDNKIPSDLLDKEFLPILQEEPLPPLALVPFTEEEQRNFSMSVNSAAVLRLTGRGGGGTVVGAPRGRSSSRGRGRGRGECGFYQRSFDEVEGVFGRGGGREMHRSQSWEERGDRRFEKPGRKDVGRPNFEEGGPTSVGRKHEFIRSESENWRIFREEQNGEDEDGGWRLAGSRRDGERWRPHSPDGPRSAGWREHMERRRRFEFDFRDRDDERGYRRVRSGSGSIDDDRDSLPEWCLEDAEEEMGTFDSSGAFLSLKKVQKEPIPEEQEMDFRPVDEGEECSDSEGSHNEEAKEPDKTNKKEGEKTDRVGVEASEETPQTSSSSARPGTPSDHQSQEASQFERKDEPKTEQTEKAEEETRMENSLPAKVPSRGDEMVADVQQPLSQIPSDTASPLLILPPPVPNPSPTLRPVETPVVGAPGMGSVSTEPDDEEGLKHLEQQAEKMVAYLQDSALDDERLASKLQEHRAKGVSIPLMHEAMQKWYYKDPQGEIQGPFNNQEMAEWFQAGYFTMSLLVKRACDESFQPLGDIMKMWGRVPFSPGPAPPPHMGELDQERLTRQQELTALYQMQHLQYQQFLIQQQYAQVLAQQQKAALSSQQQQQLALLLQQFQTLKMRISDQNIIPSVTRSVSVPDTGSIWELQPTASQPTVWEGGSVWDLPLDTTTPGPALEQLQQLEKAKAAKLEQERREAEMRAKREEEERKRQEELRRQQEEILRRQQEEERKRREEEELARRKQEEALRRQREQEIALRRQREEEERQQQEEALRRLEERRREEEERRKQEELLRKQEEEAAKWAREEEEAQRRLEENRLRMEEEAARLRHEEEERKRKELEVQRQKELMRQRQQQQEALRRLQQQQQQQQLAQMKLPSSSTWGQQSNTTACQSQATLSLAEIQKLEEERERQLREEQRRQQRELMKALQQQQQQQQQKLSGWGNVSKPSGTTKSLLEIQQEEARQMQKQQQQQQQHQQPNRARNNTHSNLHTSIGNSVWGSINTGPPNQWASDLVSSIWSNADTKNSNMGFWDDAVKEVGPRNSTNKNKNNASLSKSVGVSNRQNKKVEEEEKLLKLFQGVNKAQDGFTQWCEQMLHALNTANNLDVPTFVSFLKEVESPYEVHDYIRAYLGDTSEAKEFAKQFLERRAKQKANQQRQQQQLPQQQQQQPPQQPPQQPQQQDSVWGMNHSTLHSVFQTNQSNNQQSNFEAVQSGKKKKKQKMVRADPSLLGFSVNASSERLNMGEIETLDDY

[3] = target: T2, GIGYF2 (human (endogenous in MRC5VA)); test: co-IP; IP with anti-GIGYF2 antibody from MRC5VA wild-type and GIGYF1/2 double-knockout cell extracts, with and without UV; blot for p97/VCP
[4] = target: Cdc48-HA3 (S. cerevisiae) (UniProt P25694); test: co-IP; anti-HA IP from yeast extracts of Myc-tagged Smy2 strains with or without Cdc48-HA3; with and without UV irradiation

Molecule: Rpb1 (from UniProt P04050 1-1733)
binding [1]: binds

B1: Myc9-TEV2-His6-Smy2 (protein, UniProt P32909 1-740)
chain: MIAPDSQRLFGSFDEQFKDLKLDSVDTENNNTHGVSTILDSSPASVNNNTNGAVAASVNTVPGSTFRSNTPLLGGRHPLSRTSSLIDSIGIQRAASPFSSMKEPFIPQSSGVMSSSFWHGDHPESRVSTPVQQHPLLQRNESSSSFSYAANLGVNLSTHSLAVDITPLSTPTAAQSHVNLFPSSDIPPNMSMNGMSQLPAPVSVESSWRYIDTQGQIHGPFTTQMMSQWYIGGYFASTLQISRLGSTPETLGINDIFITLGELMTKLEKYDTDPFTTFDKLHVQTTSSDSINLNLAPYASGVAATGTIKATENDIFKPLTHDNIWDMDGGTTSKGVDIKLASATTISQTDESHKQEYKSTTMLEKGKKEKSESVAKALLDEQEKRNRELKRKEEARLSKKQKQKEDDLLKKQKEQKEQKEKEALEAEKQKKSEKTKKDTQTQTEGFKTSKDLPSLNSSSANPAPWASKVKVNNAIETSIKNGVSSTGKKKGEPLGLQQRNSKEEKQKEELKSVLNWANKSSLPSNQTIDIKSQFQKSPKGMKESSPLKELEDPNFIEEQKKLWEKVQSSSKQVKSTSSASTTTSSWTTVTSKGKAPIGTVVSPYSKTNTSLNSSLTAKTSTTSTTTTFASMNNVSPRQEFIKWCKSQMKLNSGITNNNVLELLLSLPTGPESKELIQETIYANSDVMDGRRFATEFIKRRVACEKQGDDPLSWNEALALSGNDDDGWEFQVVSKKKGRKH
binding [4]: binds

The remaining lines, values ahead:

binding [1]: binds
Molecule: Cdc48 (from UniProt P25694 1-835)

binding [2]: binds | binding [3]: binds
Molecule: p97/VCP (from UniProt P55072 1-806)
